Assay results taken from article PMC6821844.
Results are given in words; binding and its absence hold for the method and conditions named. Some results given as binding are weak or reduced against the parent protein; the word gives no strength.

Biological target: partially oxidized DJ-1 (DJ-1Pox, Cys106-SO2-), C-terminal His-tagged (human) (UniProt Q99497)
Assay: dynamic light scattering; DJ-1 forms at 1 mg/ml, 22 °C, Zetasizer Nano ZS; read together with far-UV circular dichroism; both purified

“partially oxidized DJ-1 (DJ-1Pox, Cys106-SO2-), C-terminal His-tagged (from UniProt Q99497 1-189) (other; other documents disagree on this pair)” was tested, and the binding was “binds”.
